In patent publication EP4785953A1:

Target: monkey c-MET protein (monkey)
Assay: ForteBio BLI affinity measurement

binding: binds
B1: anti-c-MET antibody-1 (antibody, V domains shown)
VH: EVQLQESGPGLVKPSETLSLTCTVSGGSVTSVNYYWKWIRQPPGKGLEWIGYISYSGNTNYNPSLKSRVTISVDTSKNQFSLKLSSVTAADTAVYYCVRAPYYYMDVWSKGTTVTVSS
VL: DIVMTQSPSSVSASVGDRVTITCRASQGISSWLAWYQQKPGKAPKLLIYAVSSLQSGVPSRFSGSGSGTDFTLTISSLQPEDFATYFCQQANSFPLTFGGGTKVEIK

Results are given in words; binding and its absence hold for the method and conditions named. Binding can be weak; no strength is given.
